The values below come from paper doi:10.1101/056713.

The chains behind the UniProt entries cited, without tags or fusion partners.
UniProt Q61545: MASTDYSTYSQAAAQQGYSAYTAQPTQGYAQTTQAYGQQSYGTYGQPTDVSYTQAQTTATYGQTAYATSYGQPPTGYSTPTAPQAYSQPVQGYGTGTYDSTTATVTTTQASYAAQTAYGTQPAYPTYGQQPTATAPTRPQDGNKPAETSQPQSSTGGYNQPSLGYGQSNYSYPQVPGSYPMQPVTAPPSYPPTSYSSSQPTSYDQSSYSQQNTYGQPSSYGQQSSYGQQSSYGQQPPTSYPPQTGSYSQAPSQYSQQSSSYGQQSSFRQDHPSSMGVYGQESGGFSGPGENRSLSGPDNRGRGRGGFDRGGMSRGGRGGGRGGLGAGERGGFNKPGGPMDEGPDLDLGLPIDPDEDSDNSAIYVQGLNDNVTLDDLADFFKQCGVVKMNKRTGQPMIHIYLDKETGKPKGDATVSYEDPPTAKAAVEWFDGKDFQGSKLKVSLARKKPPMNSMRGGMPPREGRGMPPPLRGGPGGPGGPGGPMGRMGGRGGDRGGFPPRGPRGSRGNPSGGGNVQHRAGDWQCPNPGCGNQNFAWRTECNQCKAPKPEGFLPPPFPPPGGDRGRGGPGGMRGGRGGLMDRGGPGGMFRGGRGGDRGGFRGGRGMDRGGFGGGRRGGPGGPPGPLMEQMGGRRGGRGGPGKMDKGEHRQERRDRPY
UniProt Q96EQ9: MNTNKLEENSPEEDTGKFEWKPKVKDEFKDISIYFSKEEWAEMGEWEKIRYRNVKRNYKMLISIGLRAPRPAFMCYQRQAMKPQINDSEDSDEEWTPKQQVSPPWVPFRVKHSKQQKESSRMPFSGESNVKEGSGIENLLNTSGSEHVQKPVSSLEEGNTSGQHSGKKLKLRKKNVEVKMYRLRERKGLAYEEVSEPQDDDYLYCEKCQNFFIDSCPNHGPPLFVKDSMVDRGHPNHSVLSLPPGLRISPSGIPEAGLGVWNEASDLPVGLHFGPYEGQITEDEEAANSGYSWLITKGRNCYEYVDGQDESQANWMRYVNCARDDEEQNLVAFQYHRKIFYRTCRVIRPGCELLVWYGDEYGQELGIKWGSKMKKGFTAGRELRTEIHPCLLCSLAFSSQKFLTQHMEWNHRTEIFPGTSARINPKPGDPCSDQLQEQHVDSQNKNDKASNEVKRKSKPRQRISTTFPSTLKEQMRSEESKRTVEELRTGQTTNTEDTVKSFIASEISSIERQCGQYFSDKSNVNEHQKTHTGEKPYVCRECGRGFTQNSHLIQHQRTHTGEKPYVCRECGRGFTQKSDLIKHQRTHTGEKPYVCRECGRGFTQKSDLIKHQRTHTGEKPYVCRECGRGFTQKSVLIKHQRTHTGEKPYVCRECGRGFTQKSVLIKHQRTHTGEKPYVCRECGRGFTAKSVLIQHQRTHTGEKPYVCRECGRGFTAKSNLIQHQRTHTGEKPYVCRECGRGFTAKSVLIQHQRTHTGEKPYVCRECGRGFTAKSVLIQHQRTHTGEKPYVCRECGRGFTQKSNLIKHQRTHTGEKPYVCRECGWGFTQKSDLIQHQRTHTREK

What all share (assay): co-IP
In assay [1] the target is T1, CDYL, endogenous in mouse testis (mouse (endogenous in testis)) (UniProt Q9WTK2).
T1 sequence: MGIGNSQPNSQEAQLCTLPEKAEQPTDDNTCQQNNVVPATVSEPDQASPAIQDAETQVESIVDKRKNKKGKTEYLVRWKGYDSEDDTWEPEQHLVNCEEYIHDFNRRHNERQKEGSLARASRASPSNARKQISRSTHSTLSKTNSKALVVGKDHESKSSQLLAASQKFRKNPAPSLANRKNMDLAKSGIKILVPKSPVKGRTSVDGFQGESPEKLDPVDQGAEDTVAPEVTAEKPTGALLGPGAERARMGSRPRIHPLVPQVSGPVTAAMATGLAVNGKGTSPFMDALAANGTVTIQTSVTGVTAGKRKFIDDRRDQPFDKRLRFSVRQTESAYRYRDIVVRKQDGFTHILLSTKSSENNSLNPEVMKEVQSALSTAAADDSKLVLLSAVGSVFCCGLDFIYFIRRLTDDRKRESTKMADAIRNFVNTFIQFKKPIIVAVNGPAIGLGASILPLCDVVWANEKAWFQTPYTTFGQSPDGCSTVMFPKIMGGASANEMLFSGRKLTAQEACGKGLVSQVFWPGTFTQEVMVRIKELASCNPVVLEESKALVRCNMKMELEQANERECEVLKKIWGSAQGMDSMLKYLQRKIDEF

Assay [2] has as its target EWSR1, endogenous in mouse testis (mouse (endogenous in testis)) (UniProt Q61545).
In assay [3] the target is PRDM9, endogenous in mouse spermatocytes (mouse (endogenous in testis)) (UniProt Q96EQ9).

Results are given in words; binding and its absence hold for the method and conditions named. In cells and extracts the contact can be indirect. Some binding calls cover weakened binding; strength is not graded here.

Consider “EWSR1, endogenous in mouse testis (from UniProt Q61545 1-655)”, for which the binding result in assay [1] is “no binding”.

B1: SYCP3, chromosomal axis/SC lateral element protein, endogenous in mouse testis (protein, UniProt P70281 1-254)
chain: MLRGCGDSDSSPEPLSKHLKMVPGGRKHSGKSGKPPLVDQPKKAFDFEKDDKDLSGSEEDVADEKAPVIDKHGKKRSAGIIEDVGGEVQNMLEKFGADINKALLAKRKRIEMYTKASFKASNQKIEQIWKTQQEEIQKLNNEYSQQFMNVLQQWELDIQKFEEQGEKLSNLFRQQQKIFQQSRIVQSQRMFAMKQIHEQFIKSLEDVEKNNDNLFTGTQSELKKEMAMLQKKVMMETQQQEMANVRKSLQSMLF
With B1, the binding result in assay [2] is recorded as “binds weakly”; in assay [3], “binds”.

B2: SYCP1, SC central element protein, endogenous in mouse testis (protein, UniProt Q62209 1-993)
chain: MEKQKPFTLFVPPRLSSSQVSAVKPQTAGGDSNYFKTANKCTEGDFGVPFTMSSRENIDKDPAFQKLSILPMLEQVANSGSCHYQEGVNDSDFENSEPMSRLYSKLYKEAEKIKKWKVSIESELKQKENKLQENRKIIEAQRKAIQELQFENEKVSLKLEEEIQENKDLIKENNATIHWCNLLKETCARSAEKTNKYEYEREETRQVYVDLNSNIEKMILAFEELRVQAENARLEMHFKLKEDHEKIQHLEEEYQKEVNNKENQVSELLIQSAEKENKMKDLTFLLEESRDKANQLEEKTKLQDENLKELSEKKDHLTSELEDIKMSMQRSMSTQKALEEDLQIATKTISQLTEVKEAQMEELNKAKTTHSFVVTELKATTCTLEELLRTEQQRLEKNEDQLKLITVELQKKSNELEEMTKFKNNKEVELEELKNILAEDQKLLDEKKQVEKLAEELQEKEQELTFLLETREKEVHDLQEQVTVTKTSEQHYLKQVEEMKTELEKEKLKNTELTASCDMLLLENKKFVQEASDMALELKKHQEDIINCKKQEERLLKQIENLEEKEMHLRDELESVRKEFIQQGDEVKCKLDKSEENARSIECEVLKKEKQMKILESKCNNLKKQVENKSKNIEELHQENKTLKKKSSAEIKQLNAYEIKVSKLELELESTKQRFEEMTNNYQKEIENKKISEGKLLGEVEKAKATVDEAVKLQKEIDLRCQHKIAEMVALMEKHKHQYDKIVEERDSELGLYKNREQEQSSAKIALETELSNIRNELVSLKKQLEIEKEEKEKLKMAKENTAILKDKKDKKIQASLLESPEATSWKFDSKTTPSQNISRLSSSMDSGKSKDNRDNLRASAKSILPTTVTKEYTVKTPTKKSIYQRENKYIPTGGSNKKRKTAFEFDVNSDSSETADLLSLVSEEDVSNRLYDNNPPDSHLLVKTPKQTPLSLSTPASFMKFGSLKKMREDRWTTIAKIDRKRRLKEAEKLFS
Regarding B2, the binding entry in assay [2] is “binds weakly”; in assay [3], “binds”.

B3: CDYL, endogenous in mouse testis (protein, UniProt Q9WTK2 1-593)
chain: T1 sequence
Turning to B3, the binding entry in assay [2] is recorded as “no binding”.
